Consider five molecules from PMC7441392.

The chains behind the UniProt entries cited, without tags or fusion partners.
UniProt Q14457: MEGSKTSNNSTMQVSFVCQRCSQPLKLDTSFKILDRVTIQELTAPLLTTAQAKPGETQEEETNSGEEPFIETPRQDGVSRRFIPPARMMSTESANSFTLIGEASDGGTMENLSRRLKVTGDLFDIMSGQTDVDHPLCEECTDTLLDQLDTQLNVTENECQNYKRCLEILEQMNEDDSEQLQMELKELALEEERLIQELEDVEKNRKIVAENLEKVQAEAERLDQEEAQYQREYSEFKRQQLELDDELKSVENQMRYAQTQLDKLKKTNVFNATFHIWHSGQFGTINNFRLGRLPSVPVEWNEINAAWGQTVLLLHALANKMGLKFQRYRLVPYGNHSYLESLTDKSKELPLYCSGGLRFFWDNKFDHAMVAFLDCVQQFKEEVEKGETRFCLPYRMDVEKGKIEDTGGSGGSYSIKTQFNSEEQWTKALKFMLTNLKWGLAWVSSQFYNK
UniProt Q9JMA1: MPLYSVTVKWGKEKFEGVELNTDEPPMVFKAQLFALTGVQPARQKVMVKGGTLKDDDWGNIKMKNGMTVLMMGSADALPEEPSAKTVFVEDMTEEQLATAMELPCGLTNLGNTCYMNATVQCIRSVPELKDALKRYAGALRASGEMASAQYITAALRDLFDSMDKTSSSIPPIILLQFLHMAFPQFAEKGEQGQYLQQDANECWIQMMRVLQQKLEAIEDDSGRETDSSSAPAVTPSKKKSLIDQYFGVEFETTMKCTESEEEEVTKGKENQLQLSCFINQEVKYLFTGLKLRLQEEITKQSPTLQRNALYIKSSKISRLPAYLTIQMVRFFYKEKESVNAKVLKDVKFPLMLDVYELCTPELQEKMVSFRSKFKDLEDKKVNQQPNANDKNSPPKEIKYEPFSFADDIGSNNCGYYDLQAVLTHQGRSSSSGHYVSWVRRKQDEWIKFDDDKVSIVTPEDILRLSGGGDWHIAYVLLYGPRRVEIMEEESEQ
UniProt Q6PF93: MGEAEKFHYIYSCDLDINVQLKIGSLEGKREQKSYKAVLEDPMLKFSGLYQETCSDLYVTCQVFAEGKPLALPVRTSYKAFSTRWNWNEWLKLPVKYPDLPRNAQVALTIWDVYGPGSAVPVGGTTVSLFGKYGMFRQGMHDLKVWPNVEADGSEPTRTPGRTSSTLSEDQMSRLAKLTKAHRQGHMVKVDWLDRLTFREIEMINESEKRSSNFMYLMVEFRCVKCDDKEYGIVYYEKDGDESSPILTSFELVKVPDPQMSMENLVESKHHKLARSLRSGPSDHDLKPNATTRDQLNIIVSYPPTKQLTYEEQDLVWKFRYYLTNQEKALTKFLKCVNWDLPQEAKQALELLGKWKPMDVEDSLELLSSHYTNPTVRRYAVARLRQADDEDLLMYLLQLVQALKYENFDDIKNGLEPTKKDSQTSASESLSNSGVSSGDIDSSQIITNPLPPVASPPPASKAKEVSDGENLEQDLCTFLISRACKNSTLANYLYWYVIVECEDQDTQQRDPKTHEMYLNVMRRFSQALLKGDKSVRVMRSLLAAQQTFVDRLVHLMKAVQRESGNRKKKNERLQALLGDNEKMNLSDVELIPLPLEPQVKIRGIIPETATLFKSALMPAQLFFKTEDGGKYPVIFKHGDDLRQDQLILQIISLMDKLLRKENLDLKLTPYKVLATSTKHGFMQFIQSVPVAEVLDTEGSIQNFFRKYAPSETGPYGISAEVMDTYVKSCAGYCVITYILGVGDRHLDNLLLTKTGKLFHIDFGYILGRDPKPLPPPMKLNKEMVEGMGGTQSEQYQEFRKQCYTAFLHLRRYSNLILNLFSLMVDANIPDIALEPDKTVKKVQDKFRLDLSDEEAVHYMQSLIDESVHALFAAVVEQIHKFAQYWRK

No constants are given. Whether binding was seen depends on the method and setting. Binding seen in cells or lysates may run through a third protein. Some binding calls cover weakened binding; strength is not graded here.

For one test, the target named is Flag-tagged Beclin1 (UniProt Q14457). The test can be described thus: co-IP; HEK293T cells transfected with tagged plasmids for 48 h, incubated with S5 for 6 h; western blot.
Test [1] addresses T1, TRAF6 (TNF receptor associated factor 6) (mouse (endogenous in RAW264.7)) (UniProt P70196).
T1 sequence: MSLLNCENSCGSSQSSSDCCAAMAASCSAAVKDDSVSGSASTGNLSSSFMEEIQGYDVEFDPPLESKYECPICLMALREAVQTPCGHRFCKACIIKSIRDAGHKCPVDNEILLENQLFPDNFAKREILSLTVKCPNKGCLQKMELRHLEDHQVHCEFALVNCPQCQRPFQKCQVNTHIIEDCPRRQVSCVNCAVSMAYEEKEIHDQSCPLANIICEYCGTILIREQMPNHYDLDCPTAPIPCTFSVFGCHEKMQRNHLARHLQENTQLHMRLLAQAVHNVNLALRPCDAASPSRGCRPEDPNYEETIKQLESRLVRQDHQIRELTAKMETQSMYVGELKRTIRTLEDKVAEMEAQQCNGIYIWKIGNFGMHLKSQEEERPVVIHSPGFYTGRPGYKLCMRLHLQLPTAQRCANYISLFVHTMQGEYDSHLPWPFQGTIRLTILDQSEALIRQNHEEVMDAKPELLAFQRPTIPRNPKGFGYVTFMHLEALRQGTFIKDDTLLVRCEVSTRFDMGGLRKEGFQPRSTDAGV
Put plainly: co-IP; endogenous proteins in RAW264.7 cell lysates; cells incubated with S5 (5, 10, and 20 μM) or DMSO for 6 h; antibody at 4 °C overnight, protein A/G-agarose beads, western blot.

The target in test [2] is Beclin1 (mouse (endogenous in RAW264.7)) (UniProt O88597). Described as above.
Test [3] has as its target T2, Beclin1 (mouse (endogenous in RAW264.7)), O88597.
T2 chain: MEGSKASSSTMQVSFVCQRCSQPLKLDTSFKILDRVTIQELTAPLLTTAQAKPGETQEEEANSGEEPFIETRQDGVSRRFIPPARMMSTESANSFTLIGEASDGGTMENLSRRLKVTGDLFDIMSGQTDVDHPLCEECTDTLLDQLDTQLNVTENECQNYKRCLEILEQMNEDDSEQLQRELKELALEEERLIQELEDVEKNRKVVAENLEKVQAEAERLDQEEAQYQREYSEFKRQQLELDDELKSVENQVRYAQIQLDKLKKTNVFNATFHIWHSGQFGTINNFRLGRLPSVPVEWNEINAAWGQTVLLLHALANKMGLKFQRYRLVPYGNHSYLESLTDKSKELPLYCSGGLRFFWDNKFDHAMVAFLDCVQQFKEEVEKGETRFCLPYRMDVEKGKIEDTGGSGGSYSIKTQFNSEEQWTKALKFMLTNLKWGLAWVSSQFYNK
The description is as above. To be noted: remark: other sources report otherwise.

Turning to “HA-tagged Bcl2 (from UniProt P10415 1-239)”, the binding result with Flag-tagged Beclin1 is “binds”.

For Beclin1 (from UniProt O88597 1-448), the binding result in test [1] was “binds”. The same measure, in the same setting: the same measure for “ubiquitin-specific proteases 14 (USP14) (from UniProt Q9JMA1 1-493) (enzyme)”: “binds”. For “class III PI3K (from UniProt Q6PF93 1-887)”, the binding entry in test [2] was “binds”.

B1: Bcl2, P10417 1-236 (protein)
chain: MAQAGRTGYDNREIVMKYIHYKLSQRGYEWDAGDADAAPLGAAPTPGIFSFQPESNPMPAVHRDMAARTSPLRPLVATAGPALSPVPPVVHLTLRRAGDDFSRRYRRDFAEMSSQLHLTPFTARGRFATVVEELFRDGVNWGRIVAFFEFGGVMCVESVNREMSPLVDNIALWMTEYLNRHLHTWIQDNGGWDAFVELYGPSMRPLFDFSWLSLKTLLSLALVGACITLGAYLGHK
For the molecule B1, in test [3], the binding result is reported as “binds”.
